Test: general procedure: Fmoc solid-phase peptide synthesis; Rink amide MBHA resin (0.70 mmol/g); HBTU/DIEA
Conditions: for crude HPLC purity: whole synthesis, analytical RP-HPLC, scale of the general procedure 0.1 mmol; for conjugation yield: conjugation step, conversion by HPLC peak area at 220 nm

Substance | crude HPLC purity | conjugation yield
Ac-GFKKG-amide | >95% | –
Fuc-α1,3-GlcNAc-Aoa(m)-GFKKG | – | 9%
Fuc-α1,4-GlcNAc-Aoa(m)-GFKKG | – | 16%
Fuc-α1,6-GlcNAc-Aoa(m)-GFKKG | – | 55%
Gal-β1,3-GlcNAc-Aoa(m)-GFKKG | – | 51%
Gal-β1,4-GlcNAc-Aoa(m)-GFKKG | – | 69%
Gal-β1,6-GlcNAc-Aoa(m)-GFKKG | – | 33%
Man-α1,2-Man-Aoa(m)-GFKKG | – | 12%
Man-α1,3-Man-Aoa(m)-GFKKG | – | 42%
Man-α1,6-Man-Aoa(m)-GFKKG | – | 43%
N[Me]-O-Aoa-GFKKG-amide | >95% | –
Neu5Ac-α2,3-Gal-β1,4-GlcNAc-Aoa(m)-GFKKG | – | 54%
Neu5Ac-α2,6-Gal-β1,4-GlcNAc-Aoa(m)-GFKKG | – | 46%

Source: publication PMC5979539 (International Journal of Molecular Sciences, 2018)
